Source: patent US20220233526A1, “COMBINATION OF HEPATITIS B VIRUS (HBV) VACCINES AND DIHYDROPYRIMIDINE DERIVATIVES AS CAPSID ASSEMBLY MODULATORS” (priority 2019, published 2022)
At least one compound was matched to its structure with a doubt left.

Tested on: rAAV8-1.3HBV (HBV genotype D)
Assay: Serum HBsAg in AAV8-HBV infected mice (AlphaLISA)
Format: in vivo, C57BL/6 mice
Conditions: 36 mpk daily oral gavage D28 to D56, alone; AAV8-HBV mice n=6

SMILES: CCOC(=O)C1=C(CN2CCN3C(=O)N(CC(C)(C)C(=O)O)CC3C2)NC(c2nccs2)=NC1c1cccc(F)c1C (stereo not shown) [Compound 76]
- change in serum HBsAg: small reduction
